Test [1] deals with T1, UNC-45 (endogenous) (C. elegans) (UniProt G5EG62).
T1 sequence: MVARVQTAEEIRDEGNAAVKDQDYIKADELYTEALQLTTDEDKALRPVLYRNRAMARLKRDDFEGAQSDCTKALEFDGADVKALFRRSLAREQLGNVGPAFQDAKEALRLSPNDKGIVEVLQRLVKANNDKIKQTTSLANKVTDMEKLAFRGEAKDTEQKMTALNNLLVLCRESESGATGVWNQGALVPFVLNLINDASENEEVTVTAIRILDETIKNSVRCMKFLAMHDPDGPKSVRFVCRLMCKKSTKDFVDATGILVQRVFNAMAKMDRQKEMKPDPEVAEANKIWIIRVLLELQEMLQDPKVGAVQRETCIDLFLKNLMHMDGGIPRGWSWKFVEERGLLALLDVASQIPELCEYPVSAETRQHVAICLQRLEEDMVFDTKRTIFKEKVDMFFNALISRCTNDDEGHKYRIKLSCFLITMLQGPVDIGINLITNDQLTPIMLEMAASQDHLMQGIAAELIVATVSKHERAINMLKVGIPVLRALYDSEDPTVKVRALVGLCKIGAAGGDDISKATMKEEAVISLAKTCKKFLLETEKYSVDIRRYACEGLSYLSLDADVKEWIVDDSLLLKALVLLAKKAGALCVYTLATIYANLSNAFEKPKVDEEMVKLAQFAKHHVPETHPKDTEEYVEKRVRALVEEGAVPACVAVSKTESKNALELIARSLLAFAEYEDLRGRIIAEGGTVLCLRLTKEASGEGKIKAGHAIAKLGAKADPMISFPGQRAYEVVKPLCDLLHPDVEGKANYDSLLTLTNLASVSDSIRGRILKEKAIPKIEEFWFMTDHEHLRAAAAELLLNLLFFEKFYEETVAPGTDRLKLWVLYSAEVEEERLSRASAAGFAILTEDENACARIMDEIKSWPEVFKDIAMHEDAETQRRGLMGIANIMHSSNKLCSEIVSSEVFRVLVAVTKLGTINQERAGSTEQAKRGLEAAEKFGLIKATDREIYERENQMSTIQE
Kind of test: co-IP; UNC-45 antibody, from worm lysates (transgenic worms with FLAG-NHL-1 and HA-F40A3.6; unc-45 mutants), done as the FLAG co-immunoprecipitation; western blot. A general note: Immunoblotting shows a protein as a band on a membrane.

By UniProt entry, the sequences of proteins in these tests, tags left out. Where a name states a change or a piece, a line headed by the entry shows the natural chain unless it says otherwise.
UniProt P02566: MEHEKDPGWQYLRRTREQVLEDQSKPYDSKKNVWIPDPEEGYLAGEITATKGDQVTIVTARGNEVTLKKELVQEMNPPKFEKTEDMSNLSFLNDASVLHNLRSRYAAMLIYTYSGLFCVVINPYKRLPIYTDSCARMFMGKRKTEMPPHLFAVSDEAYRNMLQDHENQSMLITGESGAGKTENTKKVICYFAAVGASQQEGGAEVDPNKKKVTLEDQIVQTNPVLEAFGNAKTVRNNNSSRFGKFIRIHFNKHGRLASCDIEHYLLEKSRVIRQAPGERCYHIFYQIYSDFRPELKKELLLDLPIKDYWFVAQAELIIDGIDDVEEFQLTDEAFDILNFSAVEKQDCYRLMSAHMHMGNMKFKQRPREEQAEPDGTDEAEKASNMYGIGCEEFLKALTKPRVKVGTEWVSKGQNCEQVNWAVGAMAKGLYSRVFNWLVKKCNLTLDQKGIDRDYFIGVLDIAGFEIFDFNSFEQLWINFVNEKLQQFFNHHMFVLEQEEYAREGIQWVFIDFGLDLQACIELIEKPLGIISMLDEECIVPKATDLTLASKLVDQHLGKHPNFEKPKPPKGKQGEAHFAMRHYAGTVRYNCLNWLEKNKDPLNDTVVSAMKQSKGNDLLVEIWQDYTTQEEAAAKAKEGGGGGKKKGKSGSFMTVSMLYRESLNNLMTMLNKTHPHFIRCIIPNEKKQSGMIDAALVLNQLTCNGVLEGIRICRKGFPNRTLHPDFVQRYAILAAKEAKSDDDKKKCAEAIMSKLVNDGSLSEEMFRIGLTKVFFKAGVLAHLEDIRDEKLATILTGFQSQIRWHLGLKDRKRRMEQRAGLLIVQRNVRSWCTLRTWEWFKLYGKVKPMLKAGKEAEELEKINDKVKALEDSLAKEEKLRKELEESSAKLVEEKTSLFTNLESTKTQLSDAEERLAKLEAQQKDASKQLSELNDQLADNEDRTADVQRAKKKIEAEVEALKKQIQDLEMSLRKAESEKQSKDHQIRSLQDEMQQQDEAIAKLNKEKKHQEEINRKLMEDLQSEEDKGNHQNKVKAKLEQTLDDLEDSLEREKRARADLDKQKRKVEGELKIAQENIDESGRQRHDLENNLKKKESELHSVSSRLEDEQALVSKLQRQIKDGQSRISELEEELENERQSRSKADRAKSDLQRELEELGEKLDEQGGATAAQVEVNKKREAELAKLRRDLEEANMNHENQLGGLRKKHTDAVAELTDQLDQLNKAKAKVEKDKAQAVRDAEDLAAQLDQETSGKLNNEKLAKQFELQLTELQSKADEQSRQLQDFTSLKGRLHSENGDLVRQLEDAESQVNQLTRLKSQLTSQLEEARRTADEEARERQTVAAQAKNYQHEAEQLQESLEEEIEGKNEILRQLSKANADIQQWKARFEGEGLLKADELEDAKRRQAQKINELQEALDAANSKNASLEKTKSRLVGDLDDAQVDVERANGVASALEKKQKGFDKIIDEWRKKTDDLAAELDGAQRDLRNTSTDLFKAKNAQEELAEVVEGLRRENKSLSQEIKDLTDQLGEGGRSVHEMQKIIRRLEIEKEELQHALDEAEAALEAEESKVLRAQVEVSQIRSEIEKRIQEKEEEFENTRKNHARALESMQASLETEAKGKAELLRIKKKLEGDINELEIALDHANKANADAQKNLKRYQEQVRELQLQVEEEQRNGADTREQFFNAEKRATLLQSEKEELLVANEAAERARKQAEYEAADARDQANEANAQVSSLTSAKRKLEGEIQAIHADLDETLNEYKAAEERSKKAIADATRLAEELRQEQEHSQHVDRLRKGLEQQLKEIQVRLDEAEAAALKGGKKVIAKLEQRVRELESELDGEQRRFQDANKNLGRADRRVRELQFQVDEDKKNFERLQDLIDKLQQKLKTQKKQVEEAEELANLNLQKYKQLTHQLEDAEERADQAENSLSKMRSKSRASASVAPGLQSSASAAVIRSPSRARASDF
UniProt O16266: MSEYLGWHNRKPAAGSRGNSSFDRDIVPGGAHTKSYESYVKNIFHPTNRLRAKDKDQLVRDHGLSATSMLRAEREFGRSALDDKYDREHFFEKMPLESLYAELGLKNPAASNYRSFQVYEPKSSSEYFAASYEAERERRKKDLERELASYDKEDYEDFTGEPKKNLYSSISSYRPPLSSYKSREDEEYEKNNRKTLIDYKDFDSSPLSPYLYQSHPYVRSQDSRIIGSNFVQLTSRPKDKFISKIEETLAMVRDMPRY

In test [2] the target is T2, FLAG-NHL-1 (C. elegans) (UniProt Q03601).
T2 sequence: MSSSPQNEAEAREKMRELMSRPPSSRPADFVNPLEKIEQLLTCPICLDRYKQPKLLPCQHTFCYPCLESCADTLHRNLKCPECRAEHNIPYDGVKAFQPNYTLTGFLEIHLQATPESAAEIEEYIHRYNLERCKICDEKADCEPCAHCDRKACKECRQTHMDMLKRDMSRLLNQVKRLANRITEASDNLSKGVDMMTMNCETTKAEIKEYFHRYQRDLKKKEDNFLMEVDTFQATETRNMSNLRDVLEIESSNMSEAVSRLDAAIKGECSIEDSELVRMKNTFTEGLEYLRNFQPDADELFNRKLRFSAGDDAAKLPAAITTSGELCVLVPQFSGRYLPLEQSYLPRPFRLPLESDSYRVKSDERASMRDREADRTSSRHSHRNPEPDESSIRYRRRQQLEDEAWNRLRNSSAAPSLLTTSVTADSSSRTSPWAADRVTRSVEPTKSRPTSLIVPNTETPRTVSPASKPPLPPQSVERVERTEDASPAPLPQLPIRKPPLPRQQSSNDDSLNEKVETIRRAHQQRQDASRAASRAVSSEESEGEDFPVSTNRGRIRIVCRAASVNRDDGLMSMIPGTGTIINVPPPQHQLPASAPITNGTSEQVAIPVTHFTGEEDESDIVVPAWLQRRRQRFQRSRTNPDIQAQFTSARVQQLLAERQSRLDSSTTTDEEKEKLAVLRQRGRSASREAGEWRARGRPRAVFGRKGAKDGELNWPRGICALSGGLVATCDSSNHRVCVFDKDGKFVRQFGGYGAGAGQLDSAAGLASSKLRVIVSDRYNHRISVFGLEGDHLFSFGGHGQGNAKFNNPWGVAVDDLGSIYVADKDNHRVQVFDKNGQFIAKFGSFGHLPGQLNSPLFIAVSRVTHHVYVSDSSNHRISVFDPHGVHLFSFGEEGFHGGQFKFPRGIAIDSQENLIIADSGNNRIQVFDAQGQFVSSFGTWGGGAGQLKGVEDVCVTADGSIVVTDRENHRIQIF
Kind of test: co-IP; anti-FLAG (M2) and Dynabeads Protein A from lysates (NP40 lysis buffer, diluted in PBS with 0.02% Tween-20, 4 °C) of transgenic worms with FLAG-NHL-1 and HA-F40A3.6 in wild-type or unc-54(e1301) background, 25 °C for 24 h before collection; western blot.

For test [3], the target named is UNC-54 (myosin heavy chain B, MHC B) (C. elegans) (UniProt P02566). Kind of test: co-IP; UNC-54/MHC B antibody, from lysates of transgenic worms with FLAG-NHL-1 and HA-F40A3.6, done as the FLAG co-immunoprecipitation; western blot.
Test [4] deals with F40A3.6 (GAL4 two-hybrid fusion) (C. elegans). Kind of test: two-hybrid; Matchmaker GAL4 yeast two-hybrid system 3, AH109 yeast, AD and BD fusions in varying combinations, growth on SD/-Leu/-Trp/-His at 30 °C for 4-5 days.

Results are given in words; binding and its absence hold for the method and conditions named. Binding can be weak; no strength is given. For some of these results: Sequences can lack the tags named with a protein. For some of these results: In cells and extracts the contact can be indirect.

As to HA-F40A3.6 (from UniProt O16266), the binding entry in test [1], in test [2] and in test [3] was “binds” throughout.

B1: UNC-45 (GAL4 two-hybrid fusion) (protein, UniProt G5EG62 1-961)
chain: T1 sequence
For B1, the binding result in test [4] is “binds”.

The record behind these values is PMC11317515.
